Test results published in PubChem BioAssay AID1347075 (National Center for Advancing Translational Sciences (NCATS), 2019).
Screen size: about 400,000 compounds; about 5,500 (1.4%) were called active. Inconclusive results, whose numbers are uncertain, are shown with a selection of clear calls. The call rests on the fitted dose curve; in most records, active means well fitted cell-killing curve with a large enough effect; inconclusive means small, poorly fitted or top-dose-only effect, or effect the other way; inactive means flat fitted curve, though single readings scatter. Potencies beside an inconclusive call are fits to weak or partial responses and may not hold up.

test: qHTS assay for MDR1-selective chemotherapeutics: Primary screen using the parental adenocarcinoma cell KB-3-1; details: KB-3-1 viability, CellTiter-Glo ATP luminescence, 72 h; activity change, negative = cytotoxic: at 46.1 µM (top of the series); further: nearly all actives have a fitted effect of over 60% in size
Procedure, shortened: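 Screening of KB-3-1 cells (DMEM, 10% FBS, phenol-red free) ran from lowest to highest compound concentration; after 72 h at 37 °C viability was read luminescently and curves fitted.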
On the % scale 0 is the no-effect control and ±100 the full control effect; potency means the concentration at half of the fitted maximal effect.

Structure (SMILES) | Potency | activity change, negative = cytotoxic
Cn1c2ccccc2c2cnn(CC(=O)Nc3ccccc3C(F)(F)F)c(=O)c21 | inactive | 
Cc1ccc(NC(=S)NC(=O)c2ccc(-c3ccc(Cl)cc3)o2)c(O)c1 | inconclusive: 29.1 µM [cytotoxic, single point] | 
COc1cc(NS(=O)(=O)c2ccc(OC)c(C)c2C)c(OC)cc1Cl | active: 3.26 µM | 
COc1cccc(C2=NOC(C(=O)Nc3cccc(C(C)=O)c3)C2)c1OC (stereo unspecified) | inactive | 
COc1ccc(NC(=O)CN2CCc3ccccc3C2)cc1OC | inconclusive: 18.4 µM [rising, partial curve, poor fit] | 
Cc1ccc(NC(=O)CNC(=O)c2ccc(OC(F)F)cc2)cc1S(=O)(=O)N1CCCCCC1 | inconclusive: 29.1 µM [cytotoxic, partial curve, poor fit] | 
CCOc1ccc(N(C(C)C(=O)Nc2cc(Cl)ccc2OC)S(C)(=O)=O)cc1 (stereo unspecified) | active: 3.66 µM | 
Cc1cccc(NC(=O)CN2C(=S)NC(C)(C)CC2C)c1C (stereo unspecified) | inactive | 
CCOc1ccccc1/C=C/c1onc(C)c1S(=O)(=O)N1CCC(C(=O)N2CCCCCC2)CC1 | inconclusive: 13 µM [cytotoxic, partial curve] | 
COc1ccc(C(=O)Nc2ccccc2C(=O)N/N=C/c2ccncc2)cc1OC | inconclusive: 5.8 µM [cytotoxic, partial curve] | 
CCCCC(=O)N(C)c1c(CC)nc2c(OCC3CCCCC3)cccn12 | inconclusive: 29.1 µM [cytotoxic, single point] | 
O=C(Nc1ccc(OC(F)(F)F)cc1)C1CCN(S(=O)(=O)c2cccs2)CC1 | active: 20.6 µM | 
S=C(NCc1ccncc1)Nc1ccc(Cl)cc1Cl | inactive | 
Cc1cc(C(=O)OCC(=O)N(C)c2ccccc2)c(C)o1 | inactive | 
CC(C)C[C@@H](CN1CCCC1CN1C(=S)NC[C@@H]1Cc1ccc(O)cc1)N1C[C@H](Cc2ccccc2)N(CC2CCCCC2)C1=S (stereo partly specified) | inconclusive: 29.1 µM [cytotoxic, single point] | 
CCc1nn(CC(=O)Nc2ccc(N(CC)CC)cc2C)c(=O)c2cc3sccc3n12 | inactive | 
Cc1cc(C)c2c(N)c(C(=O)NN)sc2n1 | inactive | 
CCOC(=O)C1=NNC(=O)C1 | inconclusive: 20.6 µM [rising, single point] | 
CC(Sc1ccc(S(=O)(=O)N2CCN(C)CC2)cn1)C(=O)Nc1cccc(Cl)c1Cl (stereo unspecified) | inconclusive: 25.9 µM [cytotoxic, partial curve, poor fit] | 
COCCCNC(=S)N1CCN(c2nc3ccccc3s2)CC1 | inconclusive: 29.1 µM [cytotoxic, single point] | 
CC1=C(CC(=O)NCC(=O)NCC(=O)O)c2cc(F)ccc2/C1=C/c1ccc(S(C)=O)cc1 (stereo unspecified) | inactive | 
Cc1nn(Cc2ccc(Cl)cc2)c(C)c1NC(=O)CSc1n[nH]c(C)c1[N+](=O)[O-] | inactive | 
CC(NS(=O)(=O)c1ccc(Cl)cc1)C(=O)Nc1ccc2c(c1)OCCO2 (stereo unspecified) | inconclusive: 29.1 µM [cytotoxic, single point] | 

Structure (SMILES) | Potency | activity change, negative = cytotoxic
COc1ccccc1C(C[N+](=O)[O-])c1c[nH]c2ccccc12 (stereo unspecified) | inconclusive: 29.1 µM [cytotoxic, single point] | 
CC(=O)NC(c1ccccc1)c1cc(Cl)c2cccnc2c1O (stereo unspecified) | inconclusive: 2.31 µM [cytotoxic, full curve, poor fit] | 
COc1cccc(C(C(=O)NC2CCCC2)N2CCN(c3cc(C)ccc3C)CC2)c1OC (stereo unspecified) | inconclusive: 18.4 µM [cytotoxic, single point] | 
CCc1nc(-n2[nH]c(=O)c3ccccc3c2=O)c2c3c(sc2n1)CCCC3 |  | inconclusive: 13.1%
O=C(C#Cc1ccccc1)c1ccc([N+](=O)[O-])cc1 | active: 23.1 µM | 
CCCCCCNC(=O)O[C@@]12CN(S(=O)(=O)c3ccc(C)cc3)C[C@]1(O)Cn1c(=O)n(CCCCCC)c(=O)n1C2 | inconclusive: 16.4 µM [cytotoxic, partial curve] | 
COc1cc(NC(=O)c2cccnc2)c(Cl)cc1NC(=O)c1ccccc1 | inconclusive: 20.6 µM [rising, single point] | 
Cc1cccc(C(=O)NC(=S)NNC(=O)c2ccccc2Cl)c1 | inconclusive: 16.4 µM [cytotoxic, single point] | 
C/C(CC(=O)C(F)(F)F)=N\NC(=O)/C(C#N)=C/N(C)C | inactive | 
O=C(Nc1cccc(C(=O)NC2CCCC2)c1)c1ccccc1 | inactive | 
CC(=O)N[C@@H](Cc1c[nH]c2ccccc12)C(=O)NCc1ccccc1 | inactive | 
Cc1cc(S(=O)(=O)NCc2ccccc2)ccc1OCC(=O)N1CCCC1 | inconclusive: 10.3 µM [rising, partial curve, poor fit] | 
CN1CCc2nc3sc(C(=O)C45CC6CC(CC(C6)C4)C5)c(N)c3cc2C1 | inactive | 
O=C1/C(=C/c2ccc(F)cc2)SC(=S)N1CCCC(=O)N1CCCCC1CCO (stereo unspecified) | inconclusive: 29.1 µM [cytotoxic, single point] | 
NC(c1csc(Nc2cc(Oc3ccccc3)ncn2)n1)C1CCCCC1 (stereo unspecified) | inconclusive: 29.1 µM [cytotoxic, single point] | 
O=c1c(Cl)c(NCc2ccccc2Cl)cnn1C12CC3CC(CC(C3)C1)C2 | inconclusive: 20.6 µM [cytotoxic, single point] | 
COc1ccc(-c2[nH]c(-c3cccc(OC)c3)nc2SCC(=O)NC2CCCC2)cc1 | inconclusive: 29.1 µM [cytotoxic, single point] | 
COc1ccccc1CN(C(=O)CNC(=O)c1ccco1)C(C(=O)NCC1CCCO1)c1ccc(OC)c(OC)c1 (stereo unspecified) | inactive | 
CCOC(=O)/C(=N/Nc1ccc(Br)cc1)N1CC(C)OC(C)C1 (stereo unspecified) | inconclusive: 29.1 µM [cytotoxic, single point] | 
Cn1nccc1C(=O)c1ccc(Cl)cc1 | inactive | 
N#C/C(=C\c1ccc2c(c1)OCCO2)C(=O)Nc1nccs1 | inactive | 
COc1ccc2c(c1)c1nc3ccccc3nc1n2CCCN1C(=O)c2ccccc2C1=O | inconclusive: 10.3 µM [cytotoxic, partial curve] | 
Clc1ccc(-c2ccc(/C=N/Nc3nncc(-c4ccccc4)n3)o2)cc1 | inactive | 
